According to patent publication US20260356821A1, “SOLID FORMS OF AN ERBB INHIBITOR” (Black Diamond Therapeutics, Inc., priority 2023, published 2026):
At least one read-out could not be matched to a standard name with certainty.

Test: Bulk Stability (solid state; HPLC purity, color, XRPD)
Assay type: physicochemical
Procedure: X-ray Powder Diffractometer (XRPD): XRPD analysis was performed using a Bruker D8 Advance X-ray powder diffractometer. Analysis was performed using parameters as set forth below.
High Performance Liquid Chromatograph (HPLC): HPLC analysis was performed using SHIMADZU LC-20AD/Agilent 1260 infinity II Binary Pump. Analysis was performed using parameters as set forth below.
Bulk Stability: Form M was evaluated for bulk stability studies. The bulk stability study was conducted in 3 conditions including 25 °C/92% RH in an open container, 40 °C/75% RH in an open container and 60 °C in a tight container for 1 week, 2 weeks and 4 weeks, respectively.

## CN1C[C@H]2C[C@@]2(C#Cc2cc3ncnc(Nc4cccc(Cl)c4F)c3cc2NC(=O)/C=C/CN2CCOCC2)C1 [Form M, (E)-N-(4-((3-chloro-2-fluorophenyl)amino)-7-(((1R,5S)-3-methyl-3-azabicyclo[3.1.0]hexan-1-yl)ethynyl)quinazolin-6-yl)-4-morpholinobut-2-enamide]
25 °C/92% RH, open container, 1 week, 10080 min
  Purity, Bulk (HPLC): 95.1%
25 °C/92% RH, open container, 2 weeks, 20160 min
  Purity, Bulk (HPLC): 95.2%
25 °C/92% RH, open container, 4 weeks, 40320 min
  Purity, Bulk (HPLC): 95.7%
40 °C/75% RH, open container, 1 week, 10080 min
  Purity, Bulk (HPLC): 92.5%
40 °C/75% RH, open container, 2 weeks, 20160 min
  Purity, Bulk (HPLC): 90.3%
40 °C/75% RH, open container, 4 weeks, 40320 min
  Purity, Bulk (HPLC): 86.3%
60 °C, tight container, 1 week, 10080 min
  Purity, Bulk (HPLC): 63.2%
60 °C, tight container, 2 weeks, 20160 min
  Purity, Bulk (HPLC): 50.5%
60 °C, tight container, 4 weeks, 40320 min
  Purity, Bulk (HPLC): 43.6%
